Results deposited as PubChem BioAssay AID1259254 (NCATS, 2017).
Assay: 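Genome-wide screen for genes that prevent DNA re-replication in cancer cells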 (primary screen). System: human HCT116 colorectal cancer cells. Reagent: single siRNA against human genes. Timing: 3 days. Detection: 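Imaged Hoechst DNA stain sorts each cell into a cycle phase by DNA amount; per plate, G2 fraction set to 0% for non-targeting and 100% for GMNN siRNA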. Reading the numbers: G2 robust z-score and G2 cells, % of GMNN control: higher = more G2 cells, more excess DNA replication. Hit rule: 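An siRNA counts as active if its G2 robust z-score lies at least 5 MADs above the screen median; here such calls match roughly 38% of GMNN control or more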.
The deposit covers about 59,000 reagents; below is a random part of them. Over the whole deposit, about 1,550 (2.6%) got an active call. 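G2 share is only a proxy for re-replication; each gene was hit by three separate siRNAs, and active genes were retested.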 The numbers tell different reagents against one gene apart. Further read-outs or replicates are left out here. Not given: the amount of reagent.

The opening 3 entries, ahead of the listing:
MIX23P3 #1 | G2 robust z-score = -0.814; G2 cells, % of GMNN control = -2.76; activity call = inactive
MIX23P3 #2 | G2 robust z-score = -0.945; G2 cells, % of GMNN control = -3.68; activity call = inactive
MIX23P3 #3 | G2 robust z-score = -0.112; G2 cells, % of GMNN control = 2.18; activity call = inactive

The listing, from the start:
MIX23P3 #1 | G2 robust z-score = -0.814; G2 cells, % of GMNN control = -2.76; activity call = inactive
MIX23P3 #2 | G2 robust z-score = -0.945; G2 cells, % of GMNN control = -3.68; activity call = inactive
MIX23P3 #3 | G2 robust z-score = -0.112; G2 cells, % of GMNN control = 2.18; activity call = inactive
ULK2 #1 | G2 robust z-score = 0.835; G2 cells, % of GMNN control = 8.85; activity call = inactive
ULK2 #2 | G2 robust z-score = -0.698; G2 cells, % of GMNN control = -1.94; activity call = inactive
ULK2 #3 | G2 robust z-score = 3.02; G2 cells, % of GMNN control = 24.2; activity call = inactive
SINHCAF #1 | G2 robust z-score = 0.345; G2 cells, % of GMNN control = 5.39; activity call = inactive
SINHCAF #2 | G2 robust z-score = -0.297; G2 cells, % of GMNN control = 0.876; activity call = inactive
SINHCAF #3 | G2 robust z-score = 0.394; G2 cells, % of GMNN control = 5.74; activity call = inactive
TMEM18 #1 | G2 robust z-score = -0.077; G2 cells, % of GMNN control = 2.43; activity call = inactive
TMEM18 #2 | G2 robust z-score = 0.729; G2 cells, % of GMNN control = 8.1; activity call = inactive
TMEM18 #3 | G2 robust z-score = -1.28; G2 cells, % of GMNN control = -6.04; activity call = inactive
ECT2 #1 | G2 robust z-score = 5.63; G2 cells, % of GMNN control = 42.6; activity call = active
ECT2 #2 | G2 robust z-score = 4.93; G2 cells, % of GMNN control = 37.6; activity call = inactive
ECT2 #3 | G2 robust z-score = 8.77; G2 cells, % of GMNN control = 64.7; activity call = active
TBC1D20 #1 | G2 robust z-score = -0.968; G2 cells, % of GMNN control = -3.84; activity call = inactive
TBC1D20 #2 | G2 robust z-score = -0.0646; G2 cells, % of GMNN control = 2.51; activity call = inactive
TBC1D20 #3 | G2 robust z-score = -0.446; G2 cells, % of GMNN control = -0.172; activity call = inactive
SPINT4 #1 | G2 robust z-score = -1.32; G2 cells, % of GMNN control = -6.31; activity call = inactive
SPINT4 #2 | G2 robust z-score = 5.54; G2 cells, % of GMNN control = 41.9; activity call = active
SPINT4 #3 | G2 robust z-score = 0.93; G2 cells, % of GMNN control = 9.51; activity call = inactive
TSG101 #1 | G2 robust z-score = 1.1; G2 cells, % of GMNN control = 10.7; activity call = inactive
TSG101 #2 | G2 robust z-score = 0.83; G2 cells, % of GMNN control = 8.8; activity call = inactive
TSG101 #3 | G2 robust z-score = 2.09; G2 cells, % of GMNN control = 17.7; activity call = inactive
